For one molecule, binding results are on record in publication PMC4873792.

Results are given in words; binding and its absence hold for the method and conditions named. In cells and extracts the contact can be indirect. A result given as binding can be weak or reduced; the word gives no strength. Tags and fused reporters may be left off the sequences shown.

For this experiment, the target named is N-terminally Flag-tagged fly DPP10 (Drosophila melanogaster) (UniProt Q7JUL3). As to the kind of experiment: co-IP; HEK293 cells co-transfected with Flag-tagged DPP cDNA (8 ug) and Myc-Kv4.3 cDNA (2 ug); extract in 20 mM Tris-HCl pH 7.4, 0.2 M NaCl, 1% Triton X-100, 1 mM EDTA; precipitation with anti-Flag antibody-conjugated resin, immunoblot.

B1: Myc-tagged rat Kv4.3 (protein, UniProt Q62897 1-655)
chain: MAAGVAAWLPFARAAAIGWMPVANCPMPLAPADKNKRQDELIVLNVSGRRFQTWRTTLERYPDTLLGSTEKEFFFNEDTKEYFFDRDPEVFRCVLNFYRTGKLHYPRYECISAYDDELAFYGILPEIIGDCCYEEYKDRKRENAERLMDDNESENNQESMPSLSFRQTMWRAFENPHTSTLALVFYYVTGFFIAVSVITNVVETVPCGTVPGSKELPCGERYSVAFFCLDTACVMIFTVEYLLRLFAAPSRYRFIRSVMSIIDVVAIMPYYIGLVMTNNEDVSGAFVTLRVFRVFRIFKFSRHSQGLRILGYTLKSCASELGFLLFSLTMAIIIFATVMFYAEKGSSASKFTSIPASFWYTIVTMTTLGYGDMVPKTIAGKIFGSICSLSGVLVIALPVPVIVSNFSRIYHQNQRADKRRAQKKARLARIRVAKTGSSNAYLHSKRNGLLNEALELTGTPEEEHMGKTTSLIESQHHHLLHCLEKTTGLSYLVDDPLLSVRTSTIKNHEFIDEQMFEQNCMESSMQNYPSTRSPSLSSHSGLTTTCCSRRSKKTTHLPNSNLPATRLRSMQELSTIHIQGSEQPSLTTSRSSLNLKADDGLRPNCKTSQITTAIISIPTPPALTPEGESRPPPASPGPNTNIPSITSNVVKVSVL
Take B1: the binding result is reported as “binds”.
